About 22,000 (6.9%) of roughly 320,000 compounds were called active. Inconclusive means that the source gave no clear call. Such entries were picked first, then a sample of the others. The call rests on the fitted dose curve; in most records, active means well fitted inhibition curve with a large enough effect; inconclusive means small, poorly fitted or top-dose-only effect, or another doubt; inactive means no such curve, though single readings can be large or run the other way. Potencies beside an inconclusive call are fits to weak or partial responses and may not hold up.
Experiment: Primary qHTS for delayed death inhibitors of the malarial parasite plastid, 96 hour incubation
Details: P. falciparum luciferase reporter growth; series mostly up to 28.7 µM
How it was run: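 Compounds incubated with erythrocytes infected by luciferase-expressing P. falciparum (2% hematocrit, 0.05% parasitemia final) for 96 hours, 37 C in 5% CO2. Growth inhibition scored as decreased luciferase luminescence.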
Potency means the concentration at half of the fitted maximal effect.

Q: For `CN(C(=O)COC(=O)c1ccc([N+](=O)[O-])cc1N)c1ccccc1`, which Potency is on record?
A: inconclusive: 11.7 µM [inhibitor, single point]

Q: Which Potency does the source give for `CCCCCc1nc2ccccc2c(=O)n1N` here?
A: inconclusive: 1.04 µM [inhibitor, partial curve, poor fit]

Q: With `COc1ccccc1OCC(=O)N1CCCC(Nc2cccc(F)c2)C1` (stereo not given) as the compound, how does the Potency read?
A: inconclusive: 11.7 µM [inhibitor, single point]

Q: With `CN1CCN(c2ccc(C(F)(F)F)cc2NC(=O)c2ccco2)CC1` as the compound, how does the Potency read?
A: inconclusive: 1.47 µM [inhibitor, partial curve, poor fit]

Q: Which Potency does the source give for `CC(C)CSc1nc(N2CCOCC2)c2c(c1C#N)CC(C)(C)SC2` here?
A: inconclusive: 11.7 µM [inhibitor, single point]

Q: For `CCN(CC)C(=O)Cn1cc(C(=O)C(=O)NCCCn2ccnc2)c2ccccc21`, which Potency is on record?
A: inactive

Q: With `COc1ccccc1-n1c(O)c(/C=N/N2CCCCC2)c(=O)n(-c2ccccc2OC)c1=S` as the compound, how does the Potency read?
A: inactive

Q: For `CSc1nc(N)nc(SCC(=O)CC(=O)OC(C)C)c1C#N`, which Potency is on record?
A: inconclusive: 18.5 µM [inhibitor, single point]

Q: With `CCN1CCN(CCCN(Cc2cccs2)C(=S)Nc2ccccc2C)CC1` as the compound, how does the Potency read?
A: inactive

Q: Which Potency does the source give for `CC1(C)CC(=O)C2=C(C1)Oc1ncn(CCCn3ccnc3)c(=N)c1C2c1ccccc1` (stereo not given) here?
A: inconclusive: 13.1 µM [inhibitor, single point]

Q: For `C=CCn1c(O)c(C(CC)=Nc2ccc(N(C)C)cc2)c(=O)[nH]c1=O`, which Potency is on record?
A: active: 1.65 µM

Q: Which Potency does the source give for `Cc1nn(Cc2ccccc2)c(C)c1NC(=O)CCCn1nc([N+](=O)[O-])c(Cl)c1C` here?
A: inconclusive: 2.94 µM [inhibitor, partial curve, poor fit]

Q: For `C/C=C(\C)C(=O)O[C@H](c1cc2ccc(=O)oc2cc1OC)[C@@H](O)C(C)(C)O`, which Potency is on record?
A: inactive

Q: Which Potency does the source give for `CCCc1nc2sc3c(=O)n(N)cnc3c2c2c1CCCC2` here?
A: inactive

Q: With `O=C1C(=O)N(Cc2cccc([N+](=O)[O-])c2)c2ccccc21` as the compound, how does the Potency read?
A: inactive

Q: With `NC(=O)C1CCN(C(=O)COc2ccc3c4c(c(=O)oc3c2)CCC4)CC1` as the compound, how does the Potency read?
A: inconclusive: 18.5 µM [inhibitor, single point]

Q: For `COc1ccc(OC)c(C2CC(=O)N3CN(c4ccccc4)CSC3=C2C#N)c1` (stereo not given), which Potency is on record?
A: inconclusive: 13.1 µM [inhibitor, single point]

Q: For `Cc1c(Cl)cccc1N(Cc1ccc(C(=O)O)cc1)S(=O)(=O)c1ccccc1`, which Potency is on record?
A: inactive

Q: Which Potency does the source give for `Cc1cc2cc(CNC(=S)NC3CCCCC3)ccc2[nH]1` here?
A: inactive

Q: For `CCOC(=O)c1cc(CC)sc1NC(=O)CN1CCN(C(=O)c2ccco2)CC1`, which Potency is on record?
A: inactive

Q: For `O=C(OCC(=O)N1CCCC1=O)c1ncc(Cl)c(Cl)c1Cl`, which Potency is on record?
A: inactive

Q: Which Potency does the source give for `O=C(Cn1nnc(-c2ccccc2Cl)n1)NCc1ccc2c(c1)OCO2` here?
A: inactive

Q: Which Potency does the source give for `O=C(Cn1c(=O)sc2ccccc21)Nc1ccccc1C(=O)O` here?
A: inconclusive: 9.28 µM [inhibitor, partial curve, poor fit]

Q: Which Potency does the source give for `CCOc1ccc(-n2c(SCC(=O)Nc3ccc(Br)cc3)nc3n[nH]c(C)c3c2=N)cc1` here?
A: inconclusive: 14.7 µM [inhibitor, single point]

Q: Which Potency does the source give for `O=C(CCC(=O)N1CCOc2ccccc21)NC1CCN(Cc2ccccc2)CC1` here?
A: inactive

Q: Which Potency does the source give for `CCC(CC)NC(=O)c1cccc([N+](=O)[O-])c1C` here?
A: active: 1.31 µM

Q: For `Cc1c(NC(=O)c2ccccc2NS(=O)(=O)c2ccc(F)cc2)c(=O)n(-c2ccccc2)n1C`, which Potency is on record?
A: inconclusive: 14.7 µM [inhibitor, single point]

Q: Which Potency does the source give for `O=C(Nc1ccc(S(=O)(=O)Nc2ccccn2)cc1)c1ccc(Cl)cc1Cl` here?
A: inactive

Q: With `CCOC(=O)C1(Cc2cccc(F)c2)CCN(C(=O)C2CCC2)CC1` as the compound, how does the Potency read?
A: inconclusive: 18.5 µM [inhibitor, single point]

Q: For `CN(CC(=O)Nc1cccc(F)c1)C(=O)CN1C(=O)NC2(CCCCC2)C1=O`, which Potency is on record?
A: inconclusive: 3.29 µM [inhibitor, single point]

Q: With `COc1ccc(NCC(=O)Nc2ccc(C#N)cc2)cc1Cl` as the compound, how does the Potency read?
A: inconclusive: 18.5 µM [inhibitor, single point]

Q: Which Potency does the source give for `CC(C)CN(C(=O)COc1ccc([N+](=O)[O-])cc1)c1c(N)n(CC(C)C)c(=O)[nH]c1=O` here?
A: inconclusive: 16.5 µM [inhibitor, single point]

Q: With `CCCn1nnc(NC(=S)NC(=O)Cc2ccccc2)n1` as the compound, how does the Potency read?
A: inconclusive: 2.08 µM [inhibitor, full curve]

Q: For `COc1ccc(-c2cnn3c4c(c(C)nc23)CCN4C2CCCC2)cc1OC`, which Potency is on record?
A: inconclusive: 16.5 µM [inhibitor, partial curve, poor fit]

Q: Which Potency does the source give for `O=C(c1ccco1)N1CCN(C(=S)Nc2ccccc2C(F)(F)F)CC1` here?
A: inactive

Q: For `Cc1ccc2nc(NC(=O)C3CCCN(S(=O)(=O)c4cccc5nsnc45)C3)sc2c1` (stereo not given), which Potency is on record?
A: inconclusive: 18.5 µM [inhibitor, single point]

Q: With `COCCNC(=O)C(c1cccs1)N(C(=O)Cn1nnc2ccccc21)c1ccc(OC)cc1` (stereo not given) as the compound, how does the Potency read?
A: inactive

Q: With `CC1=C(C(=O)OCCCBr)C(c2ccc3c(c2)OCO3)NC(=O)N1` (stereo not given) as the compound, how does the Potency read?
A: inconclusive: 13.1 µM [inhibitor, partial curve, poor fit]

Q: With `CC(C)Cn1nc(NC(=O)C(C)(C)C)c2cc3ccccc3nc21` as the compound, how does the Potency read?
A: inconclusive: 14.7 µM [inhibitor, partial curve, poor fit]

Q: Which Potency does the source give for `Cc1nn(C)c(C(=O)Nc2c(C)nn(Cc3c(F)c(F)c(F)c(F)c3F)c2C)c1Br` here?
A: inconclusive: 14.7 µM [inhibitor, single point]

Q: With `CCN(CC)CCn1c(=S)[nH]c2ccccc2c1=O` as the compound, how does the Potency read?
A: inconclusive: 14.7 µM [inhibitor, single point]

Q: Which Potency does the source give for `O=C(N/N=C/c1ccc(Sc2nc3ccccc3[nH]2)o1)c1ccncc1` here?
A: inactive

Q: Which Potency does the source give for `Cc1nnc(SCC(=O)N(C)C2CCCCC2)s1` here?
A: inactive

Q: With `O=C(CN1C(=O)c2ccccc2C1=O)NCc1ccc(C(=O)O)cc1` as the compound, how does the Potency read?
A: inconclusive: 7.38 µM [inhibitor, partial curve]

Q: For `CCN(CC)S(=O)(=O)c1ccc(C(=O)NCc2ccc3c(c2)OCO3)cc1`, which Potency is on record?
A: inconclusive: 0.165 µM [inhibitor, full curve]
